Test results from article PMC12449339.
No constants are given. Whether binding was seen depends on the method and setting. In cells and extracts the contact can be indirect. Some entries that bind do so weakly or less than the wild type.

Protein sequences, listed by entry. Tags and fused reporters are not part of them.
UniProt Q9HCM7: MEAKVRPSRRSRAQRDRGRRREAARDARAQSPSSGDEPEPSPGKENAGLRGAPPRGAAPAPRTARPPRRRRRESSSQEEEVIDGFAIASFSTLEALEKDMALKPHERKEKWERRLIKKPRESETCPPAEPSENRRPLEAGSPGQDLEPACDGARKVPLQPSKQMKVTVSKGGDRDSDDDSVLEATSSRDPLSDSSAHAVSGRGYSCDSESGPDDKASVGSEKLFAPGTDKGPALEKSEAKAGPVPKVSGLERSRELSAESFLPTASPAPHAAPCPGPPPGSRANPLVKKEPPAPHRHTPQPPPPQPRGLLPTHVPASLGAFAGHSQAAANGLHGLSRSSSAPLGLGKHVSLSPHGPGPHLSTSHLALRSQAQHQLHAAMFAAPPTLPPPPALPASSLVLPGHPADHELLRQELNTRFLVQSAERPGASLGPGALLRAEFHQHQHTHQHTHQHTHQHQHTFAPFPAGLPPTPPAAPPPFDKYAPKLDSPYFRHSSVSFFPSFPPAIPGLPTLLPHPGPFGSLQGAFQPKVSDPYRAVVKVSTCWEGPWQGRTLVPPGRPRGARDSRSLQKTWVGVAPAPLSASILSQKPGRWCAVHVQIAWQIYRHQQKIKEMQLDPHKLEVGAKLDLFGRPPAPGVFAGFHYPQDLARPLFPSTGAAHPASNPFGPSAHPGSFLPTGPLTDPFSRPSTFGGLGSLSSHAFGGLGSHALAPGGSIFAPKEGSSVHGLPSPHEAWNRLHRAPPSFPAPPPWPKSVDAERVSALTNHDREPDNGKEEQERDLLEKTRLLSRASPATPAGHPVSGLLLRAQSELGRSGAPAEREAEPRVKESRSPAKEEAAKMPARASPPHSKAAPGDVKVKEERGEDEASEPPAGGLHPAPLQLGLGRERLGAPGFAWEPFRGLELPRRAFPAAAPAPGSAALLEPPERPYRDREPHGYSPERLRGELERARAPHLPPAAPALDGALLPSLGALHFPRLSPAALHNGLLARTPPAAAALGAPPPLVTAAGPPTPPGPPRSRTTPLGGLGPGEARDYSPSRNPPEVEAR
UniProt P25490: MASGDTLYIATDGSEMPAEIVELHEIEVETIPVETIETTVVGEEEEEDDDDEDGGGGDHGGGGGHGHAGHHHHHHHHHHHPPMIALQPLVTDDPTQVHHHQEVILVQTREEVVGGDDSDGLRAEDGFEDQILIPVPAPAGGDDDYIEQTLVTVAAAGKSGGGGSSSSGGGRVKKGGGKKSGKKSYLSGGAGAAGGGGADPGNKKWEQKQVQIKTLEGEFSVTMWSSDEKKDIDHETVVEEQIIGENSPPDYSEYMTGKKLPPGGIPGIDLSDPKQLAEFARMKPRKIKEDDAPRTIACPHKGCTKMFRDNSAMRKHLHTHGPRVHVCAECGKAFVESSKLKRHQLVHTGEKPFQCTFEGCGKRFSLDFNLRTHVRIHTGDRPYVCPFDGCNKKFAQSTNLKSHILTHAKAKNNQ

What was measured:
[1] = biological target: HA-tagged FBRSL1 long canonical isoform I1 (HA-FBRSL1-I1-pcDNA3.1), in HeLa cells (human) (UniProt Q9HCM7); assay: proximity ligation; HeLa cells co-transfected with HA-FBRSL1 isoform and Flag-YY1, fixed the day after; anti-HA and anti-Flag M2 primary antibodies, Duolink PLA; signals exclusively in the nucleus
[2] = biological target: HA-tagged FBRSL1 long canonical isoform I1 (HA-FBRSL1-I1-pcDNA3.1) (human) (UniProt Q9HCM7); assay: co-IP; HEK293 cells transfected with HA-FBRSL1 isoform, lysed in modified RIPA buffer 24 h after transfection; pre-cleared lysate incubated with anti-HA antibody in IP buffer (20 mM HEPES, 100 mM KCl, 1% triton X-100, pH 7.2) at 4 °C, protein G magnetic beads; western blot of endogenous YY1; two biological replicates

Row | Substance | binding [1] | binding [2]
1 | Flag-YY1 (Flag-YY1-pcDNA3.1) (from UniProt P25490 1-414) | binds | –
2 | endogenous transcription factor Yin Yang 1 (YY1) (from UniProt P25490 1-414) | – | binds
